Test in all cases: pull-down; 3 µM MBP-tagged bait and 5 µM untagged prey in 50 mM HEPES pH 7.5, 150 mM KCl; 10 min at room temperature, 1 h at 4°C with amylose resin; washed, eluted with 20 mM maltose; SDS-PAGE, Coomassie; both purified
The target of experiment [1] is T1, (MBP-)Ltv1 (S. cerevisiae) (UniProt P34078).
T1 sequence: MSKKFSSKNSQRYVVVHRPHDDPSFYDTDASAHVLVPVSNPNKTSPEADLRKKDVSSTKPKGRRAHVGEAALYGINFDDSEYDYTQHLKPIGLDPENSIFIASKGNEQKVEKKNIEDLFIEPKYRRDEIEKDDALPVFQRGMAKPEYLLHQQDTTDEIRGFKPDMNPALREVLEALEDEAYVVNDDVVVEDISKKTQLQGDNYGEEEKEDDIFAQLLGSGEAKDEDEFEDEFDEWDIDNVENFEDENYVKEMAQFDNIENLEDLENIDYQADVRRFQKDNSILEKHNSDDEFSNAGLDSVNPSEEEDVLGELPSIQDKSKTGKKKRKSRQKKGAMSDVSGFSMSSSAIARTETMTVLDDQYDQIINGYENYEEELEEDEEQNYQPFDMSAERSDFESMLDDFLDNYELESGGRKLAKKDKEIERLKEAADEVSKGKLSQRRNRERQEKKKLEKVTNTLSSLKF

Sequences of proteins named here, by UniProt entry; tags and fusion partners are left off.
UniProt P41819: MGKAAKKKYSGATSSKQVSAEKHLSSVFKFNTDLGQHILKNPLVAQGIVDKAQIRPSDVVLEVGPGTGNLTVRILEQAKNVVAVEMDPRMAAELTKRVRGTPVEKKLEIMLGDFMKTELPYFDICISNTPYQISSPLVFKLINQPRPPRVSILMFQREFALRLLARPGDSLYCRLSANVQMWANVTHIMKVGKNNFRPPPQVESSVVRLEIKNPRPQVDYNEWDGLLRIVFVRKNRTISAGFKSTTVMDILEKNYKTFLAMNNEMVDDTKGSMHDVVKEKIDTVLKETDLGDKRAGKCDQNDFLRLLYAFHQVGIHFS
UniProt P40160: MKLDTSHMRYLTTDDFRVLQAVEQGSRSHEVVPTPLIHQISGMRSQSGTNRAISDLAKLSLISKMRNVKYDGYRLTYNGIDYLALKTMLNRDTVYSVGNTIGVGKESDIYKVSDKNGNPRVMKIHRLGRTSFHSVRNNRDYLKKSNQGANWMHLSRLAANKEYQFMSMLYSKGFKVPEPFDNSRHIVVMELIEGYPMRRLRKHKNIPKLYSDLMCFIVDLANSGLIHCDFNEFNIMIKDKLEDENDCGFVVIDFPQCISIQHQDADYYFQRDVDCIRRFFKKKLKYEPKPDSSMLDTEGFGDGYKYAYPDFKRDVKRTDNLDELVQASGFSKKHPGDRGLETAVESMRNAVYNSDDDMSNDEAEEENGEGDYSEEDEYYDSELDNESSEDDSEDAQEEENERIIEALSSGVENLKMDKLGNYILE

Experiment [2] has as its target T2, (MBP-)Rps5 (S. cerevisiae) (UniProt P26783).
T2 sequence: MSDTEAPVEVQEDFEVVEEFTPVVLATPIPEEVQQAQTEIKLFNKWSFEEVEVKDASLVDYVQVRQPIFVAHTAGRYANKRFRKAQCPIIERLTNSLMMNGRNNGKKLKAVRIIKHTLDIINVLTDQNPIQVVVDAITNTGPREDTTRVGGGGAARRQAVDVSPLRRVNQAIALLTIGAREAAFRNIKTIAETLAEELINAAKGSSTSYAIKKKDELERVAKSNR

Experiment [3] deals with T3, (MBP-)Nob1 (S. cerevisiae) (UniProt Q08444).
T3 sequence: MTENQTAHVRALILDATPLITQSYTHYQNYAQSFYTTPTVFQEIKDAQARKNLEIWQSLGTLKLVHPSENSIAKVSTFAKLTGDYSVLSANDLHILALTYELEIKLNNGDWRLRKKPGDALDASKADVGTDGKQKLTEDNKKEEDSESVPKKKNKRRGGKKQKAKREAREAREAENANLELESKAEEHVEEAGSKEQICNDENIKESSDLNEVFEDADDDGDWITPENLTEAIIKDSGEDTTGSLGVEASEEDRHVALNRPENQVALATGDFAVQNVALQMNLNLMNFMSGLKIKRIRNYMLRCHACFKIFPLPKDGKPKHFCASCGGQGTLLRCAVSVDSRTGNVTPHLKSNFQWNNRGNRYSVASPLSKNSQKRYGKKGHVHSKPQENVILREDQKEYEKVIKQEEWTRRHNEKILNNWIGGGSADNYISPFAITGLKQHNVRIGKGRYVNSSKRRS

No constants are given. Whether binding was seen depends on the method and setting. Some entries that bind do so weakly or less than the wild type. Where a sequence is shown, tags or fusion partners need not be part of it.

For “Dim1 (untagged) (from UniProt P41819 1-318) (enzyme)”, the binding entry in experiment [1] is “binds weakly”. Turning to “Rio2 (untagged) (from UniProt P40160 1-425) (enzyme)”, the binding entry in experiment [2] and in experiment [3] was “binds” each time.
